Values after ≈ are worked out from the molar mass of the structure shown. Values joined by “and” are separate entries in the source; they are usually repeats but may differ in a detail not shown here. Equal values may be shown once. This is one part of the list. Shown are side measurements of this screen, not its main read-out; they come without a call.
Assay: Confirmatory growth inhibition assay, mycobacterium tuberculosis h37rv, with cytotoxicity (AID 1332);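 as to CC50: Vero cells exposed to compounds for 72 hours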;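 as to IC50: bacteria incubated 7 days before adding Alamar blue readout reagent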
Settings: M. tuberculosis H37Rv growth inhibition; CC50: measured here: Vero cell cytotoxicity; IC50: measured here: IC50 H37Rv replicates

| SMILES | IC50 | CC50 [mg/L] |
| --- | --- | --- |
| CCC1(C)CC(=O)NC(=O)C1 | > 20 mg/L |  |
| C[C@@]12C(=O)OC(=O)[C@]1(C)[C@H]1CC[C@@H]2O1 | > 20 mg/L | 4.5 (≈ 23 µM) |
| NS(=O)(=O)c1cc(C(=O)O)c(NCc2ccco2)cc1Cl | > 20 mg/L |  |
| Cc1cc(C2CCCCC2)n(O)c(=O)c1 | > 20 mg/L | 0.409 (≈ 1.97 µM) |
| NC(=O)c1ncn([C@@H]2O[C@H](CO)[C@@H](O)[C@H]2O)n1 | > 20 mg/L |  |
| CCOc1ccc2c(c1)C(C)=CC(C)(C)N2 | > 10 mg/L |  |
| CC(C)COCC(CN(Cc1ccccc1)c1ccccc1)N1CCCC1 (configuration not stated) | 6.21 mg/L (≈ 16.9 µM) | > 6 |
| CCCCNC(=O)NS(=O)(=O)c1ccc(C)cc1 | > 20 mg/L |  |
| CC(=O)[C@H]1CC[C@H]2[C@@H]3C[C@H](C)C4=CC(=O)CC[C@]4(C)[C@H]3[C@@H](O)C[C@]12C | > 20 mg/L |  |
| CC(=O)[C@H]1CC[C@H]2[C@@H]3CC[C@H]4C[C@H](O)CC[C@]4(C)[C@H]3C(=O)C[C@]12C | > 20 mg/L |  |
| OCc1cc(C(O)CNCCCCCCOCCCCc2ccccc2)ccc1O (configuration not stated) | > 20 mg/L |  |
| Cc1nc2n(c(=O)c1CCN1CCC(c3noc4cc(F)ccc34)CC1)CCCC2 | > 20 mg/L |  |
| CCS(=O)(=O)CCn1c([N+](=O)[O-])cnc1C | > 20 mg/L |  |
| COc1ccc2cc([C@@H](C)C(=O)O)ccc2c1 | > 20 mg/L |  |
| CC(C)NCC(O)COc1cccc2ccccc12 (configuration not stated) | > 20 mg/L |  |
| CC1(C)NC(=O)N(c2ccc([N+](=O)[O-])c(C(F)(F)F)c2)C1=O | > 20 mg/L |  |
| Cc1cccc(CN2CCN(C(c3ccccc3)c3ccc(Cl)cc3)CC2)c1 (configuration not stated) | 6.56 mg/L (≈ 16.8 µM) |  |
| CCOC(=O)C1=C[C@]2(CC)CCCN3CCc4c(n1c1ccccc41)[C@@H]32 | > 20 mg/L |  |
| C[C@]12CC[C@@H]3c4ccc(O)cc4CC[C@H]3[C@@H]1CCC2=O | > 20 mg/L |  |
| c1ccc2[nH]c(-c3cscn3)nc2c1 | > 20 mg/L |  |
| CN1[C@@H](CC(=O)c2ccccc2)CCC[C@H]1C[C@H](O)c1ccccc1 | > 20 mg/L |  |
| C=C1C[C@]23C[C@@]1(O)CC[C@H]2[C@@]12C=C[C@H](O)[C@@](C)(C(=O)O1)[C@H]2[C@@H]3C(=O)O | > 20 mg/L |  |

| SMILES | IC50 | CC50 [mg/L] |
| --- | --- | --- |
| CC(=O)NC1CCSC1=O (configuration not stated) | > 20 mg/L |  |
| CN(C)CCCO[C@@H]1[C@H]2OC(C)(C)O[C@H]2O[C@@H]1[C@H](O)CO | > 20 mg/L |  |
| CCc1cccc2c3c([nH]c12)C(CC)(CC(=O)O)OCC3 (configuration not stated) | > 20 mg/L |  |
| CC[N+](CC)(CC)CCC(O)(c1ccccc1)C1CCCCC1 (configuration not stated) | > 20 mg/L |  |
| CO/N=C(\C(=O)N[C@@H]1C(=O)N2C(C(=O)O)=C(C[N+]3(C)CCCC3)CS[C@H]12)c1csc(N)n1 | > 20 mg/L |  |
| CN1C(=O)CCS(=O)(=O)C1c1ccc(Cl)cc1 (configuration not stated) | > 20 mg/L |  |
| C=CC1=C(C(=O)O)N2C(=O)[C@@H](NC(=O)/C(=N\OCC(=O)O)c3csc(N)n3)[C@H]2SC1 | > 20 mg/L |  |
| CN/C(=C/[N+](=O)[O-])NCCSCc1csc(CN(C)C)n1 | > 20 mg/L |  |
| Cc1ccccc1N1C(=O)c2cc(S(N)(=O)=O)c(Cl)cc2NC1C (configuration not stated) | > 20 mg/L |  |
| c1ccc2c(c1)CCCc1cc(NCCN3CCOCC3)nnc1-2 | > 20 mg/L |  |
| Nc1cc(-c2ccncc2)c[nH]c1=O | > 20 mg/L | > 6 |
| Nc1c(Br)cc(Br)cc1CNC1CCC(O)CC1 (configuration not stated) | > 20 mg/L |  |
| CN(C)CCOC(=O)COc1ccc(Cl)cc1 | > 20 mg/L |  |
| c1ccc2c3c([nH]c2c1)[C@H]1C2CCC([C@@H]4CCCN[C@H]24)N1CC3 (some centres not stated) | > 20 mg/L |  |
| Cc1cn([C@H]2C[C@@H](N=[N+]=[N-])[C@@H](CO)O2)c(=O)[nH]c1=O | > 20 mg/L |  |
| OC(CCN1CCCCC1)(c1ccccc1)C1CCCCC1 (configuration not stated) | > 20 mg/L |  |
| N[C@@H](C(=O)N[C@@H]1C(=O)N2C(C(=O)O)=C(Cl)CS[C@H]12)c1ccccc1 | > 20 mg/L and 1.93 mg/L |  |
| CC(C)NC[C@H](O)c1ccc(O)c(O)c1 | > 20 mg/L |  |
| CC(Oc1ccccc1)C(=O)N[C@@H]1C(=O)N2[C@@H]1SC(C)(C)[C@@H]2C(=O)O (some centres not stated) | > 20 mg/L |  |
| N[C@H]1C[C@@H]1c1ccccc1 | > 20 mg/L |  |
| Cn1c([N+](=O)[O-])cnc1COC(N)=O | > 20 mg/L |  |

Some of the entries above in a different format.
SMILES	IC50	CC50 [mg/L]
CC(=O)NC1CCSC1=O (configuration not stated)	> 20 mg/L	
CN(C)CCCO[C@@H]1[C@H]2OC(C)(C)O[C@H]2O[C@@H]1[C@H](O)CO	> 20 mg/L	
CCc1cccc2c3c([nH]c12)C(CC)(CC(=O)O)OCC3 (configuration not stated)	> 20 mg/L	
CC[N+](CC)(CC)CCC(O)(c1ccccc1)C1CCCCC1 (configuration not stated)	> 20 mg/L	
CO/N=C(\C(=O)N[C@@H]1C(=O)N2C(C(=O)O)=C(C[N+]3(C)CCCC3)CS[C@H]12)c1csc(N)n1	> 20 mg/L	
CN1C(=O)CCS(=O)(=O)C1c1ccc(Cl)cc1 (configuration not stated)	> 20 mg/L	
C=CC1=C(C(=O)O)N2C(=O)[C@@H](NC(=O)/C(=N\OCC(=O)O)c3csc(N)n3)[C@H]2SC1	> 20 mg/L	
CN/C(=C/[N+](=O)[O-])NCCSCc1csc(CN(C)C)n1	> 20 mg/L	
Cc1ccccc1N1C(=O)c2cc(S(N)(=O)=O)c(Cl)cc2NC1C (configuration not stated)	> 20 mg/L	
c1ccc2c(c1)CCCc1cc(NCCN3CCOCC3)nnc1-2	> 20 mg/L	
Nc1cc(-c2ccncc2)c[nH]c1=O	> 20 mg/L	> 6
Nc1c(Br)cc(Br)cc1CNC1CCC(O)CC1 (configuration not stated)	> 20 mg/L	
CN(C)CCOC(=O)COc1ccc(Cl)cc1	> 20 mg/L	

— PubChem BioAssay AID1332 (Southern Research Institute, 2008)
